In US20120107275A1, “FUSED HETEROCYCLIC DERIVATIVES AND METHODS OF USE” (Amgen Inc., priority 2006, published 2012):
Some results were stated once for a whole list of compounds, not compound by compound.

Amino acid sequences for entries named in this document (tags omitted). Residues count along the entry.
UniProt P16056, 25-1379: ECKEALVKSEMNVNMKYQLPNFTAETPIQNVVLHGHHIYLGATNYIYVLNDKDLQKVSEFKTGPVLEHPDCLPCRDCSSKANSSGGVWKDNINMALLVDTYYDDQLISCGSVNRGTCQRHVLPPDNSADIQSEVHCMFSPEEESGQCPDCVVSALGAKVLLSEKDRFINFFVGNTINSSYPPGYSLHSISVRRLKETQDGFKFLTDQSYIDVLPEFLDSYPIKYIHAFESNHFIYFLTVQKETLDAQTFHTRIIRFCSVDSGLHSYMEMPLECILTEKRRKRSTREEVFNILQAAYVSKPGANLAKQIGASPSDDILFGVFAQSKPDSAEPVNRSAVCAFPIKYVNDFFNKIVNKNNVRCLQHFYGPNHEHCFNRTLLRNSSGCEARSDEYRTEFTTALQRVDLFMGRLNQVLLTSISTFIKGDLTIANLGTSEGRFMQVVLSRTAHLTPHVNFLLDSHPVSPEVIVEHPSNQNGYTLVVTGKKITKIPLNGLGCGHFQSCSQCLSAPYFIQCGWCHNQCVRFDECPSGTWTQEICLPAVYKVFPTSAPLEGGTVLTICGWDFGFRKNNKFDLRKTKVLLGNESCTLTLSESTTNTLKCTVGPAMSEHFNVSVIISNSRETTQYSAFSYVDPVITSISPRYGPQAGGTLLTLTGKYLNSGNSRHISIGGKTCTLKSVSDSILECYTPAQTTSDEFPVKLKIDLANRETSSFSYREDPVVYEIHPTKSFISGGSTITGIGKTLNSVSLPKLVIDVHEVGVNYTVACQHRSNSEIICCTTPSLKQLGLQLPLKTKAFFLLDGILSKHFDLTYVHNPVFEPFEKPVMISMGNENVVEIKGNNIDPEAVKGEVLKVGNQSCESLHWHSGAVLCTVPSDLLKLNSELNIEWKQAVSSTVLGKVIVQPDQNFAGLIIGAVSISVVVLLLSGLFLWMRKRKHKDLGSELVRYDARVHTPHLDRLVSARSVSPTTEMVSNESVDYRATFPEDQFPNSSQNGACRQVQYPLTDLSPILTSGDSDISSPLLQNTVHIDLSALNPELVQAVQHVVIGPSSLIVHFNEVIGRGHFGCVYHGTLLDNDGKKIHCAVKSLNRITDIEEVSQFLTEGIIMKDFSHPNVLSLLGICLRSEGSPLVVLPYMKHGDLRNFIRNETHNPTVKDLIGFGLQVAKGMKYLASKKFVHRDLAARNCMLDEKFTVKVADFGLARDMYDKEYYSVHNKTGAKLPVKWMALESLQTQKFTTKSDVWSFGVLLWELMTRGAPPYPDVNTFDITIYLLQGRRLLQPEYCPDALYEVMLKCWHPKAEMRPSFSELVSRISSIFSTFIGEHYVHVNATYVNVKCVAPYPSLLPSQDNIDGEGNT
UniProt P08581, 1058-1365: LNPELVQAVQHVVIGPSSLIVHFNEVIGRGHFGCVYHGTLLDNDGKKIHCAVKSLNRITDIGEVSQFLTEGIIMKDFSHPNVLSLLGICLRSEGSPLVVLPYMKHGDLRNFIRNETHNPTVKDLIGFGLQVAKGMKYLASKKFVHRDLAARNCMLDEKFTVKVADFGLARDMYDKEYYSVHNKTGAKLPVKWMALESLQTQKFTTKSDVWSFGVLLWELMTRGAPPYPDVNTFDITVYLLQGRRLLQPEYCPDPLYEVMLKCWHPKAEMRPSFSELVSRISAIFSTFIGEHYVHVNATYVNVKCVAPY
UniProt P08581, 25-1390: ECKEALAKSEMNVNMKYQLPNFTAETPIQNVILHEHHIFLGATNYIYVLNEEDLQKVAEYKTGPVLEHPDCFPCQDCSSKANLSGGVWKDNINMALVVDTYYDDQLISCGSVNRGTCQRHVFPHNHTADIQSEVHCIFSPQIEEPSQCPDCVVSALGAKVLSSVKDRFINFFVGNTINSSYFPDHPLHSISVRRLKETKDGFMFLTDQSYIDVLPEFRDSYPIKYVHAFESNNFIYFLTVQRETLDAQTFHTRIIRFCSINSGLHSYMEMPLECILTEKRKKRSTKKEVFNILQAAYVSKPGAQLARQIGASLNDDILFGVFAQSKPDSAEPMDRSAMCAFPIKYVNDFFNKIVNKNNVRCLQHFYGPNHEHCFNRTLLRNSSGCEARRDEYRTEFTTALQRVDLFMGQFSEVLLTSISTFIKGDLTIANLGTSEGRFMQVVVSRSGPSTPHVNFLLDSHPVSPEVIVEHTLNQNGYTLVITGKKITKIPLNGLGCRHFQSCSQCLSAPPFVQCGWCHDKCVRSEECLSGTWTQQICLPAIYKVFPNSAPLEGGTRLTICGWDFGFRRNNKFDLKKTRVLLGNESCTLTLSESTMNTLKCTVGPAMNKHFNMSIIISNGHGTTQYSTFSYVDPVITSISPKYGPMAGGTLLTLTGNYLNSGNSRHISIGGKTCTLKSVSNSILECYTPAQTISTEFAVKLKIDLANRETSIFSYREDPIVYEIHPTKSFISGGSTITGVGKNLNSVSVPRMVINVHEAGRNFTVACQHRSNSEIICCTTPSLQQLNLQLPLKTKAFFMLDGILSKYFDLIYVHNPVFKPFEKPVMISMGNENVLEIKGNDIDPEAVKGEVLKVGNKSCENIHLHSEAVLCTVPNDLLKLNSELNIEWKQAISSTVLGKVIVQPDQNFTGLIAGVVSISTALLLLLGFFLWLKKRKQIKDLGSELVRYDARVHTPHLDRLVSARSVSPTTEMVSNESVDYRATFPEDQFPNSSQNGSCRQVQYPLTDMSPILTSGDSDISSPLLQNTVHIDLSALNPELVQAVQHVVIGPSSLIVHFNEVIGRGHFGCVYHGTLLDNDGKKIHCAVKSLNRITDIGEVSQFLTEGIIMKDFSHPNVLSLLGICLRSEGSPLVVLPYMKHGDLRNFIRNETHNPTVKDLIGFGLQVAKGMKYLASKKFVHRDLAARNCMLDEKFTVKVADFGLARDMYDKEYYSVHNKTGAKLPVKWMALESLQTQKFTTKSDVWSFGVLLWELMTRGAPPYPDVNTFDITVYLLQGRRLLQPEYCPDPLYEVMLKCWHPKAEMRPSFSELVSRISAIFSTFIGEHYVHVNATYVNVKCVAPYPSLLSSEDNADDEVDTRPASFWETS

Assays:
c-Met [1] = target: T1, c-Met (Mus musculus, UniProt P16056); assay: c-Met cell-based autophosphorylation assay, CT26 cells (HGF stimulated, IGEN readout); conditions: HGF 250 ng/mL
T1 construct: host or cells: CT26 (mouse)
Experimental: (§1) c-Met Cell-Based Autophosphorylation Assay
(§2) Human PC3 and mouse CT26 cells are available obtained from ATCC. […] 2×10^4 cells in medium were plated per well in a 96 well plate and incubated at 37° C. overnight. The cells were serum-starved by replacing the growth media with basic medium (DMEM low glucose+0.1 BSA, 120 μL per well) at 37° C. for 16 h. […] Compound samples (2.4 μL per well) were diluted with basic medium (240 μL) in a 96 well plate. […] The cells were incubated at 37° C. for 1 h. A (2 mg/mL) solution of CHO-HGF (7.5 μL) was diluted with 30 mL basic medium to provide a final concentration of 500 ng/mL. This HGF-containing media (120 μL) was transferred to a 96 well plate. Compounds (1.2 μL) was added to the HGF-containing media and mixed well.
(§3) BSA/0.1% Tween20) by rotating for 30 min at RT. Antibody beads (25 μL) were transferred to a 96 well plate. Cell lysate solution (25 μL) was transferred added and the plate was shaken at RT for 1 h. […] 1×PBS (175 μL) was added to each well and the electrochemiluminescence was read by an IGEN M8. Raw data was analyzed using a 4-parameter fit equation in XLFit. IC50 values are then determined using Grafit software.

[2] = target: T2, c-Met kinase domain (GST-cMet) (Homo sapiens, UniProt P08581); assay: c-Met receptor assay (HTRF kinase assay with GST-cMet (P) enzyme, gastrin and ATP); assay type: biochemical
T2 construct: A PCR product covering residues 1058-1365 of c-Met (c-Met kinase domain); made in house; host or cells: High5 insect cells (baculovirus, BacToBac)
Experimental: Cloning, Expression and Purification of c-Met Kinase Domain
The PCR product is cloned into a modified pFastBac1 expression vector (harboring the gene for S. japonicum glutathione S-transferase immediately upstream of the multiple cloning site) using standard molecular biological techniques. The GST-c-Met kinase domain fusion (GST-Met) gene is transposed into full-length baculovirus DNA using the BacToBac™ system (Invitrogen). High5 cells are infected with the recombinant baculovirus for 72 h at 27° C. The infected cells are harvested by centrifugation and the pellet is stored at −80° C. The pellet is resuspended in buffer A (50 mM HEPES, pH 8.0, 0.25 M NaCl, 10 mM 2-mercaptoethanol, 10% (w/v) glycerol, 0.5% (v/v) protease inhibitor cocktail (Sigma P8340), stirred at 4° C. to homogeneity, and the cells are disrupted by microfluidization (Microfluidics) at 10,000 psi. The resulting lysate is centrifuged at 50,000×g for 90 min at 4° C., and the supernatant is adsorbed onto 10 mL of glutathione Sepharose™ 4B (Amersham) by batch method. The slurry is rocked gently overnight at 4° C. The glutathione resin is harvested by centrifugation and washed three times with 40 mL buffer A by batch method. The resin is washed three times with buffer B (buffer A adjusted to 0.1 M NaCl, less protease inhibitors). The protein is eluted with buffer B containing 25 mM reduced glutathione. Eluted fractions are analyzed by SDS-PAGE and concentrated to <10 mL (˜10 mg/mL total protein). The concentrated protein is separated by Superdex™ 200 (Amersham) size exclusion chromatography in buffer C (25 mM Tris, pH 7.5, 0.1 M NaCl, 10 mM 2-mercaptoethanol, 10% glycerol). The fractions are analyzed by SDS-PAGE and the appropriate fractions are pooled and concentrated to ˜1 mg/mL. The protein is aliquotted and stored at −80° C.
Alternative Purification of Human GST-cMET from Baculovirus Cells
The resin is washed with 10 column volumes (100 mL) of Lysis Buffer. […] The elution is collected as 15 mL fractions. Aliquots of the elution fractions are run on SDS PAGE (12% Tris Glycine gel, Invitrogen, #EC6005BOX). The gel is stained with 0.25% Coomassie Blue stain. Fractions with GST-cMET are concentrated with a Vivaspin 20 mL Concentrator (#VS2002; […]) to a final volume less than 2.0 ml. […] The GST-cMET is eluted with an isocratic run of the above buffer, with the eluent collected in 1.0 mL fractions. Fractions with significant OD280 readings are run on another 12% Tris Glycine gel. The peak tubes with GST-cMET are pooled and the OD280 is read with the column buffer listed above as the blank buffer.
Phosphorylation of the purified GST-cMET is performed by incubating the protein for 3 h at RT with the following:
After incubation, the solution is concentrated in a Vivaspin 20 ml Concentrator to a volume less than 2.00 ml. The solution is applied to the same Superdex 75 16/60 column used above after re-equilibration. The GST-cMET is eluted as described above. The elution fractions corresponding to the first eluted peak on the chromatogram are run on a 12% Tris Glycine gel, as above, to identify the fractions with GST-cMET. Fractions are pooled and the OD280 is read with the column buffer used as the blank.
A Kinase reaction Buffer is prepared as follows:
When the assay is carried out, freshly add:
The HTRF buffer contains:
1. […] 2. […] Then incubate the plate at RT for 30 min. 3.
Use Biomek FX to add 20 μl ATP and Gastrin working solution to the assay plate to start reaction, incubate the plate at RT for 1 h. 4.
KM ATP, KM gastrin for various enzymes were determined by HTRF/^33P labeling and HTRF methods.

c-Met [3] = target: T3, c-Met (Homo sapiens, UniProt P08581); assay: c-Met cell-based autophosphorylation assay, PC3 cells (HGF stimulated, IGEN readout); conditions: HGF 250 ng/mL
T3 construct: host or cells: PC3 (human)
Experimental: as §1, §2, §3

| IC50 (c-Met [1]) [nM] | IC50 [2] [nM] | IC50 (c-Met [3]) [nM] | Structure (SMILES) |
| --- | --- | --- | --- |
| < 1000 |  |  | COc1ccc2c(OCc3nnc4ccc(-c5ccc(C(N)=O)c(F)c5)nn34)ccnc2c1 [Example 11, 2-fluoro-4-(3-((7-methoxyquinolin-4-yloxy)methyl)-[1,2,4]triazolo[4,3-b]pyridazin-6-yl)benzamide] |
| < 1000 | < 500 | < 1000 | COCCNC(=O)c1ccc(-c2ccc3nnc(COc4ccnc5cc(OC)ccc45)n3n2)cc1Cl [Example 16, 2-chloro-N-(2-methoxyethyl)-4-(3-((7-methoxyquinolin-4-yloxy)methyl)-[1,2,4]triazolo[4,3-b]pyridazin-6-yl)benzamide] |
|  | < 500 |  | COc1ccc2c(OCc3nnc4ccc(-c5ccc(N6CCN(C(=O)OC(C)(C)C)CC6)nc5)nn34)ccnc2c1 [Example 46, tert-butyl 4-(5-(3-((7-methoxyquinolin-4-yloxy)methyl)-[1,2,4]triazolo[4,3-b]pyridazin-6-yl)pyridin-2-yl)piperazine-1-carboxylate] |
| < 1000 | < 500 | < 1000 | COc1ccc2c(OCc3nnc4ccc(-c5ccc(CN6CCOCC6)c(F)c5)nn34)ccnc2c1 [Example 8, 4-((6-(3-fluoro-4-(morpholinomethyl)phenyl)-[1,2,4]triazolo[4,3-b]pyridazin-3-yl)methoxy)-7-methoxyquinoline] |
| < 1000 | < 500 | < 1000 | COc1cnc2c(NCc3nnc4ccc(-c5ccccc5)cn34)ccnc2c1 [Example 26, 7-Methoxy-N-((6-phenyl-[1,2,4]-triazolo[4,3-a]pyridin-3-yl)methyl)-1,5-naphthyridin-4-amine] |
|  | < 500 |  | COc1ccc2c(OCc3nnc4ccc(-c5ccc(N(C)C)nc5)nn34)ccnc2c1 [Example 43, 5-(3-((7-methoxyquinolin-4-yloxy)methyl)-[1,2,4]triazolo[4,3-b]pyridazin-6-yl)-N,N-dimethylpyridin-2-amine] |
|  | < 500 |  | COCCNC(=O)c1ccc(-c2ccc3nnc(COc4ccnc5cc(OC)ccc45)n3n2)cc1F [Example 9, 2-fluoro-N-(2-methoxyethyl)-4-(3-((7-methoxyquinolin-4-yloxy)methyl)-[1,2,4]triazolo[4,3-b]pyridazin-6-yl)benzamide] |
|  | < 500 |  | COc1ccc2c(OCc3nnc4ccc(-c5ccc(C(=O)N6CCOCC6)s5)nn34)ccnc2c1 [Example 27, (5-(3-((7-methoxyquinolin-4-yloxy)methyl)-[1,2,4]triazolo[4,3-b]pyridazin-6-yl)thiophen-2-yl)(morpholino)methanone] |
|  | < 500 |  | COc1ccc2c(OCc3nnc4ccc(-c5ccc(C(=O)N(C)C)c(F)c5)nn34)ccnc2c1 [Example 10, 2-fluoro-4-(3-((7-methoxyquinolin-4-yloxy)methyl)-[1,2,4]triazolo[4,3-b]pyridazin-6-yl)-N,N-dimethylbenzamide] |
|  | < 500 |  | COc1ccc2c(CCc3nnc4ccc(-c5ccccc5)nn34)ccnc2c1 [Example 5, 7-methoxy-4-(2-(6-phenyl-[1,2,4]triazolo[4,3-b]pyridazin-3-yl)ethyl)quinoline] |
| < 1000 |  |  | COc1ccc2c(OCc3nnc4ccc(-c5ccc(OCCN6CCOCC6)c(F)c5)nn34)ccnc2c1 [Example 15, 4-((6-(3-fluoro-4-(2-morpholinoethoxy)phenyl)-[1,2,4]-triazolo[4,3-b]pyridazin-3-yl)methoxy)-7-methoxyquinoline] |
| < 1000 | < 500 | < 1000 | COc1ccc2c(OCc3nnc4ccc(-c5ccc(CN6CCCC6)cc5)nn34)ccnc2c1 [Example 7, 7-methoxy-4-((6-(4-(pyrrolidin-1-ylmethyl)phenyl)-[1,2,4]triazolo[4,3-b]pyridazin-3-yl)methoxy)quinoline] |
|  | < 500 |  | COc1ccc2c(OCc3nnc4ccc(-c5ccc(C(=O)N6CCCC6)s5)nn34)ccnc2c1 [Example 28, (5-(3-((7-methoxyquinolin-4-yloxy)methyl)-[1,2,4]-triazolo[4,3-b]pyridazin-6-yl)thiophen-2-yl)(pyrrolidin-1-yl)methanone] |
| < 1000 | < 500 | < 1000 | COc1cnc2c(NCc3nnc4ccc(-c5cccc(F)c5)cn34)ccnc2c1 [Example 25, N-((6-(3-Fluorophenyl)-[1,2,4]triazolo[4,3-a]pyridin-3-yl)methyl)-7-methoxy-1,5-naphthyridin-4-amine] |
|  | < 500 |  | c1ccc(-c2ccc3nnc(CNc4ncnc5nc[nH]c45)n3n2)cc1 [Example 42, N-((6-phenyl-[1,2,4]triazolo[4,3-b]pyridazin-3-yl)methyl)-7H-purin-6-amine] |
| < 1000 | < 500 | < 1000 | COc1ccc2c(OCc3nnc4ccc(-c5ccc(CN(C)C)cc5)nn34)ccnc2c1 [Example 6, (4-(3-((7-methoxyquinolin-4-yloxy)methyl)-[1,2,4]triazolo[4,3-b]pyridazin-6-yl)phenyl)-N,N-dimethylmethanamine] |
|  | < 500 |  | c1ccc(-c2ccc3nnc(CNc4ccnc5cc(OCCN6CCCC6)cnc45)n3n2)cc1 [Example 22, N-((6-phenyl-[1,2,4]triazolo[4,3-b]pyridazin-3-yl)methyl)-7-(2-(pyrrolidin-1-yl)ethoxy)-1,5-naphthyridin-4-amine] |
|  | < 500 |  | c1ccc(-c2ccc3nnc(COc4ccnc5ccccc45)n3n2)cc1 [Example 2, 4-((6-phenyl-[1,2,4]triazolo[4,3-b]pyridazin-3-yl)methoxy)quinoline] |
|  | < 500 |  | COc1ccc2c(OCc3nnc4ccc(-c5ccc(N6CCNCC6)nc5)nn34)ccnc2c1 [Example 47, 7-methoxy-4-((6-(6-(piperazin-1-yl)pyridin-3-yl)-[1,2,4]triazolo[4,3-b]pyridazin-3-yl)methoxy)quinoline] |
|  | < 500 |  | COc1ccc2c(OCc3nnc4ccc(-c5ccc(NC6CCN(C(=O)OC(C)(C)C)C6)nc5)nn34)ccnc2c1 (centres unmarked) [Example 48, tert-butyl 3-(5-(3-((7-methoxyquinolin-4-yloxy)methyl)-[1,2,4]-triazolo[4,3-b]pyridazin-6-yl)pyridin-2-ylamino)pyrrolidine-1-carboxylate] |
